According to US20090022803A1, “Oral Formulations For Delivery of Catecholic Butanes Including Ndga Compounds” (priority 2005, published 2009):
Like-named read-outs stand apart in the source and are kept apart here. The source gives many values for each of these; only a part stands here.

Format: physicochemical
Details: for Dissolution After Cool-Down: after heating at 70° C.
Protocol: A 10 mL solution of M4N at a concentration of about 10 mg/mL in 40% BP-β-CD was made as follows. About 10 mL of the 40% HP-β-CD solution were added to a glass beaker containing a stir bar. The beaker was placed on a magnetic plate and the stir bar was set to stir at medium speed. About […] of M4N were slowly added to the 40% HP-β-CD in the center of the beaker with the aid of a spatula. The M4N/40% HP-β-CD mixture was stirred for 2 hr or until all M4N was uniformly suspended without any clumps being present. The M4N/40% HP-β-CD mixture was optionally heated at 80° C. for about 30 min. (or longer if a larger volume of solution was desired, for example, 1 hr at 80° C. for 100 mL of the M4N/HP-β-CD mixture), or longer as needed to ensure complete dissolution of M4N. […] The final M4N/40% HP-β-CD solution was stored at room temperature and was kept protected from light. This process may be scaled up or down to obtain the requisite volume or concentration of M4N. Formulations containing M4N in other cyclodextrin solutions may be similarly made, such as, for example, by substituting HP-β-CD in the process described above with other cyclodextrins. […]
A 10 mL solution of M4N at a concentration of about 10 mg/mL in 50% HP-β-CD/0.5% HPMC was made as follows. About 10 mL of the 50% HP-β-CD/0.5% HPMC solution were added to a glass beaker containing a stir bar. The beaker was placed on a magnetic plate and the stir bar was set to stir at medium speed. About 100 mg of M4N were slowly added to the 50% HP-β-CD/0.5% HPMC in the center of the beaker with the aid of a spatula. The M4N/50% HP-β-CD/0.5% HPMC mixture was stirred for 24 hr or until all M4N was uniformly suspended without any clumps being present. The M4N/50% HP-β-CD/0.5% HPMC mixture was heated at about 90° C. for about 30 min. (or longer if a larger volume of solution was desired, for example, 1 hr at 90° C. for 500 mL of the M4N/50% HP-β-CD/0.5% HPMC mixture), or longer as needed to ensure complete dissolution of M4N. […] The final M4N/50% HP-β-CD/0.5% HPMC solution was stored at room temperature and was kept protected from light.
A 10 mL solution of M4N at a concentration of about 20 mg/mL in 5% EC (w/v) (the “EC formulation”) was made as follows. About 10 mL of 5% EC formulation, made as described above, were added to a glass beaker containing a stir bar. The beaker was placed on a magnetic plate and the stir bar was set to stir at medium speed, and covered with a round Teflon® cover. About 200 mg of M4N were slowly added to the 5% EC formulation in the center of the beaker with the aid of a spatula to prevent M4N from sticking to the beaker wall. The M4N/EC mixture was stirred for 2 hr or until all M4N had dissolved or was uniformly suspended without any clumps being present. The M4N/EC mixture was heated at about 60° C. for about 30 min. (or longer if a larger volume of solution was desired, for example, 1 hr at 60° C. for 500 mL of the M4N/EC mixture), or longer as needed to ensure complete dissolution of M4N. […] The final M4N/EC solution was stored at room temperature and was kept protected from light.
A 10 mL solution of M4N at a concentration of about 50 mg/mL in sesame oil was made as follows. About 10 mL of sesame oil were added to a glass beaker containing a stir bar. The beaker was placed on a magnetic plate and the stir bar was set to stir at medium speed. About 500 mg of M4N were slowly added to the sesame oil in the center of the beaker with the aid of a spatula to prevent M4N from sticking to the beaker wall. The M4N/sesame oil mixture was stirred for about 2 hr or until all M4N had dissolved or was uniformly suspended without any clump being present. The M4N/sesame oil mixture was heated at about 60° C. for about 30 min. (or longer if a larger volume of solution was desired, for example, 1 hr at 60° C. for 500 mL of the M4N/sesame oil mixture), or longer as need to ensure complete dissolution of M4N. […]
Wherever Dissolution After Cool Down is given: key: N represents 'No'; Y represents 'Yes.'.

With `COc1ccc(C[C@@H](C)[C@@H](C)Cc2ccc(OC)c(OC)c2)cc1OC` [Formulation M4N, meso-1,4-bis(3,4-dimethoxyphenyl)-2,3-dimethylbutane] as the molecule, how does the “Dissolution After Rotation” value (40% Propylene Glycol (w/v), 10% Ethanol (v/v), M4N 10 mg/mL) read?
The value was “N”.

What about the “Dissolution After Rotation” value (47.5% (v/v) Tween ® 20, 47.5% (v/v) PEG 400, 2.5% (w/v) Beeswax 2.5% (w/v) PEG 3350, M4N 60 mg/mL) of the same molecule?
The value was “N”.

And the “Dissolution After Cool Down” value (47.5% (v/v) Tween ® 20, 47.5% (v/v) PEG 400, 2.5% (w/v) Beeswax 2.5% (w/v) PEG 3350, M4N 60 mg/mL, after heating at 65° C.)?
The value was “Y”.

What about the “Dissolution After Heating” value (47.5% (v/v) Tween ® 20, 47.5% (v/v) PEG 400, 2.5% (w/v) Beeswax 2.5% (w/v) PEG 3350, M4N 60 mg/mL, heating at 65° C.) of the same molecule?
The value was “Y at 65 °C”.

What about the “Dissolution After Rotation” value (47.5% Tween ® 20 (v/v), 47.5% PEG 400 (v/v), 5% Beeswax (w/v), M4N 200 mg/g) of the same molecule?
Its value is “N”.

What about the “Dissolution After Cool Down” value (47.5% Tween ® 20 (v/v), 47.5% PEG 400 (v/v), 5% Beeswax (w/v), M4N 200 mg/g, after heating at 65° C.) of the same molecule?
The value was “Waxy solid”.

What about the “Dissolution After Heating” value (47.5% Tween ® 20 (v/v), 47.5% PEG 400 (v/v), 5% Beeswax (w/v), M4N 200 mg/g, heating at 65° C.) of the same molecule?
The value was “Y at 65 °C”.

And the “Dissolution After Rotation” value (50% (v/v) Tween ® 20 40% (v/v) PEG 400, 5% (w/v) Lechitin, 2.5% (w/v) PEG 3350, 2.5% (w/v) Beeswax, M4N 60 mg/mL)?
Its value is “N”.

And the “Dissolution After Cool Down” value (50% (v/v) Tween ® 20 40% (v/v) PEG 400, 5% (w/v) Lechitin, 2.5% (w/v) PEG 3350, 2.5% (w/v) Beeswax, M4N 60 mg/mL, after heating at 60° C.)?
The value was “Creamy”.

What about the “Dissolution After Heating” value (50% (v/v) Tween ® 20 40% (v/v) PEG 400, 5% (w/v) Lechitin, 2.5% (w/v) PEG 3350, 2.5% (w/v) Beeswax, M4N 60 mg/mL, heating at 60° C.) of the same molecule?
Its value is “Y at 60 °C”.

And the “Dissolution After Rotation” value (50% Tween ® 20 (v/v), 50% PEG 400 (v/v), M4N 30 mg/ml)?
The value was “N”.

And the “Dissolution After Cool Down” value (50% Tween ® 20 (v/v), 50% PEG 400 (v/v), M4N 30 mg/ml, after heating at 65° C.)?
The value was “Y”.

And the “Dissolution After Heating” value (50% Tween ® 20 (v/v), 50% PEG 400 (v/v), M4N 30 mg/ml, heating at 65° C.)?
Its value is “Y at 65 °C”.

What about the “Dissolution After Rotation” value (50% Tween ® 20 (v/v), 50% PEG 400 (v/v), M4N 40 mg/ml) of the same molecule?
The value was “N”.

And the “Dissolution After Cool Down” value (50% Tween ® 20 (v/v), 50% PEG 400 (v/v), M4N 40 mg/ml, after heating at 65° C.)?
The value was “Y”.

And the “Dissolution After Heating” value (50% Tween ® 20 (v/v), 50% PEG 400 (v/v), M4N 40 mg/ml, heating at 65° C.)?
Its value is “Y at 65 °C”.

And the “Dissolution After Rotation” value (50% Tween ® 20 (v/v), 50% PEG 400 (v/v), M4N 50 mg/ml)?
Its value is “N”.

What about the “Dissolution After Cool Down” value (50% Tween ® 20 (v/v), 50% PEG 400 (v/v), M4N 50 mg/ml, after heating at 65° C.) of the same molecule?
The value was “Y”.

What about the “Dissolution After Heating” value (50% Tween ® 20 (v/v), 50% PEG 400 (v/v), M4N 50 mg/ml, heating at 65° C.) of the same molecule?
The value was “Y at 65 °C”.

What about the “Dissolution After Rotation” value (50% Tween ® 20 (v/v), 50% PEG 400 (v/v), M4N 60 mg/ml) of the same molecule?
The value was “N”.

And the “Dissolution After Cool Down” value (50% Tween ® 20 (v/v), 50% PEG 400 (v/v), M4N 60 mg/ml, after heating at 65° C.)?
The value was “Y”.

And the “Dissolution After Heating” value (50% Tween ® 20 (v/v), 50% PEG 400 (v/v), M4N 60 mg/ml, heating at 65° C.)?
Its value is “Y at 65 °C”.

What about the “Dissolution After Rotation” value (50.3% (v/v) Tween ® 20, 44.6% (v/v) PEG 400, 2.4% (w/v) Beeswax, 2.4% (w/v) PEG 3350, 0.3% (w/v) Naringenin, M4N 60 mg/mL) of the same molecule?
Its value is “N”.

What about the “Dissolution After Cool Down” value (50.3% (v/v) Tween ® 20, 44.6% (v/v) PEG 400, 2.4% (w/v) Beeswax, 2.4% (w/v) PEG 3350, 0.3% (w/v) Naringenin, M4N 60 mg/mL, after heating at 65° C.) of the same molecule?
Its value is “Y”.

What about the “Dissolution After Heating” value (50.3% (v/v) Tween ® 20, 44.6% (v/v) PEG 400, 2.4% (w/v) Beeswax, 2.4% (w/v) PEG 3350, 0.3% (w/v) Naringenin, M4N 60 mg/mL, heating at 65° C.) of the same molecule?
The value was “Y at 65 °C”.

What about the “Dissolution After Heating” value (Ethanol 100%, M4N 10 mg/mL, heating at 37° C.) of the same molecule?
Its value is “N at”.

What about the “Dissolution After Rotation” value (Gelucire ® 44/14 100%, M4N 60 mg/mL) of the same molecule?
The value was “N”.

And the “Dissolution After Cool Down” value (Gelucire ® 44/14 100%, M4N 60 mg/mL, after heating at 60° C.)?
Its value is “Creamy”.

What about the “Dissolution After Heating” value (Gelucire ® 44/14 100%, M4N 60 mg/mL, heating at 60° C.) of the same molecule?
The value was “Y at 60 °C”.

What about the “Dissolution After Rotation” value (Gelucire ® 44/14 100%, M4N 200 mg/mL) of the same molecule?
The value was “N”.

What about the “Dissolution After Cool Down” value (Gelucire ® 44/14 100%, M4N 200 mg/mL, after heating at 60° C.) of the same molecule?
Its value is “Creamy”.

And the “Dissolution After Heating” value (Gelucire ® 44/14 100%, M4N 200 mg/mL, heating at 60° C.)?
Its value is “Y at 60 °C”.

And the “Dissolution After Rotation” value (Gelucire ® 44/14 100%, M4N 300 mg/mL)?
The value was “N”.

What about the “Dissolution After Cool Down” value (Gelucire ® 44/14 100%, M4N 300 mg/mL, after heating at 60° C.) of the same molecule?
Its value is “Creamy”.

What about the “Dissolution After Heating” value (Gelucire ® 44/14 100%, M4N 300 mg/mL, heating at 60° C.) of the same molecule?
Its value is “Y at 60 °C”.

What about the “Dissolution After Cool-Down” value (Glycerol 100%, M4N 1 mg/mL) of the same molecule?
The value was “N”.

What about the “Dissolution After Heating” value (Glycerol 100%, M4N 1 mg/mL, heating at 70° C.) of the same molecule?
The value was “Y at”.

And the “Dissolution After Cool-Down” value (Glycerol 100%, M4N 10 mg/mL)?
The value was “N”.

What about the “Dissolution After Heating” value (Glycerol 100%, M4N 10 mg/mL, heating at 70° C.) of the same molecule?
The value was “Y at”.

What about the “Dissolution After Cool-Down” value (Glycerol 100%, M4N 20 mg/mL) of the same molecule?
Its value is “N”.

What about the “Dissolution After Heating” value (Glycerol 100%, M4N 20 mg/mL, heating at 70° C.) of the same molecule?
Its value is “Y at”.

And the “Dissolution After Rotation” value (Glycerol Monoleate 100% (w/v), M4N 0.10 mg/ml)?
Its value is “N”.

What about the “Dissolution After Cool Down” value (Glycerol Monoleate 100% (w/v), M4N 0.10 mg/ml, after heating at 60° C.) of the same molecule?
Its value is “Suspension”.

And the “Dissolution After Heating” value (Glycerol Monoleate 100% (w/v), M4N 0.10 mg/ml, heating at 60° C.)?
The value was “Y at 60 °C”.

And the “Dissolution After Rotation” value (Glycerol Monoleate 100% (w/v), M4N 0.25 mg/ml)?
The value was “N”.

And the “Dissolution After Cool Down” value (Glycerol Monoleate 100% (w/v), M4N 0.25 mg/ml, after heating at 60° C.)?
The value was “Suspension”.
